Experimental findings from paper PMC8165255 are described below.

Protein sequences, listed by entry. Tags and fused reporters are not part of them.
UniProt O14746: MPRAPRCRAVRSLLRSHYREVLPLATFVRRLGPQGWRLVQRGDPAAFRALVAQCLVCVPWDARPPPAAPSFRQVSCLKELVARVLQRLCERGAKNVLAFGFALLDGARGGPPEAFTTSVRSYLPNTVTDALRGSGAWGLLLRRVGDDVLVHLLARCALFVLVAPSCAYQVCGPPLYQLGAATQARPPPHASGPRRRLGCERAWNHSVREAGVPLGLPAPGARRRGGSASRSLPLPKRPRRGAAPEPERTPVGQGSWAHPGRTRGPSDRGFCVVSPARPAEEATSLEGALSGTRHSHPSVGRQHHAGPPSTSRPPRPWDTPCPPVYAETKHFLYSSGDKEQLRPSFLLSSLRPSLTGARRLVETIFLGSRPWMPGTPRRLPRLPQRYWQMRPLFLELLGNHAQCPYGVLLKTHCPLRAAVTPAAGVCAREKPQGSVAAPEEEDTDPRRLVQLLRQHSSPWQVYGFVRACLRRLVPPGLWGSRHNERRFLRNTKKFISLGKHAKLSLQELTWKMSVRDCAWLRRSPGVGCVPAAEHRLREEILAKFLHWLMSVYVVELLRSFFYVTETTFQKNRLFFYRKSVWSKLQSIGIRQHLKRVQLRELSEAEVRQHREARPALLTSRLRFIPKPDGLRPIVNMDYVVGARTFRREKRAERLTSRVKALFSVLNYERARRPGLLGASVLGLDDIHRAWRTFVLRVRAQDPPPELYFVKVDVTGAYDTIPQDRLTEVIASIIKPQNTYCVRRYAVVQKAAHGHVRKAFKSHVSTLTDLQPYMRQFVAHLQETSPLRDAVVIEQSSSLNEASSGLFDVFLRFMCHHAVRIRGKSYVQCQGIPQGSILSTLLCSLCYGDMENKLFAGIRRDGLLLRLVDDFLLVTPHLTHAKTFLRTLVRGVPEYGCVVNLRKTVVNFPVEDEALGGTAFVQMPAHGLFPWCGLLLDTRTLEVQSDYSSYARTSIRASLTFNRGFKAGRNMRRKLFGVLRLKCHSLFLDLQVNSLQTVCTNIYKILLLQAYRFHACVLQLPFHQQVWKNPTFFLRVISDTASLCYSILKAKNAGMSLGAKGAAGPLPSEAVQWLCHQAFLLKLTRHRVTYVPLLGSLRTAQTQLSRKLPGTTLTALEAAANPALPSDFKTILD
UniProt P13010: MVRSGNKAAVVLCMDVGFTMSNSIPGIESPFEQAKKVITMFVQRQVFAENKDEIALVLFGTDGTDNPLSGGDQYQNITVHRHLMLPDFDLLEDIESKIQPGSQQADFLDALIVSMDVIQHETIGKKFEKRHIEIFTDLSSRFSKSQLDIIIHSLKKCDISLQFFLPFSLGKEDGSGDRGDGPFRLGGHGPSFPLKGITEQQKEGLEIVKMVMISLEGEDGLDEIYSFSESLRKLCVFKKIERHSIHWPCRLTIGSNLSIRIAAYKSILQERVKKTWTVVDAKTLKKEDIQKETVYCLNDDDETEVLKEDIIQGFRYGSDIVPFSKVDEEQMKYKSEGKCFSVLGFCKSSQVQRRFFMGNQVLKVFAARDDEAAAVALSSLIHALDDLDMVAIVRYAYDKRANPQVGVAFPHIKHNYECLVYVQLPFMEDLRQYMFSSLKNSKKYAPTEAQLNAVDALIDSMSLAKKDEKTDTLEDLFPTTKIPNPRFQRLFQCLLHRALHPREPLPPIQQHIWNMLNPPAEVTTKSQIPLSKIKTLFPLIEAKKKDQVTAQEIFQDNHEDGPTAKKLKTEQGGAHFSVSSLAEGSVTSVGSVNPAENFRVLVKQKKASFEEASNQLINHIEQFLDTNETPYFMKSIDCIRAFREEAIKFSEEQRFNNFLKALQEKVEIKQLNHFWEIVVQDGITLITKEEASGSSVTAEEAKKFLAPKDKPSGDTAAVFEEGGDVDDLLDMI
UniProt P67809: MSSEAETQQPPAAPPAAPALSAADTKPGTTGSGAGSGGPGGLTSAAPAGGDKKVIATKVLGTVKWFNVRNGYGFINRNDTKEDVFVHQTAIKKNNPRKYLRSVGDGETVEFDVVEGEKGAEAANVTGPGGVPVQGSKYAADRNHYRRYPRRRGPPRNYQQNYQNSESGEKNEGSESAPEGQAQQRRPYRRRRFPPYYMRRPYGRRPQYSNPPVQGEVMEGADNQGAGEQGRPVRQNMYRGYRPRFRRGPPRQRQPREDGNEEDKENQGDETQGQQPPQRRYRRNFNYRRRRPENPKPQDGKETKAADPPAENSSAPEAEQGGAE

These are yes or no findings as the source states them, for the method shown. In cells and extracts the contact can be indirect. A yes stands for co-enrichment or nearness to the bait. Other partners may have been found.

The labels stand for the following.
B1: ILF3 (protein, UniProt Q12906 1-894)
chain: MRPMRIFVNDDRHVMAKHSSVYPTQEELEAVQNMVSHTERALKAVSDWIDEQEKGSSEQAESDNMDVPPEDDSKEGAGEQKTEHMTRTLRGVMRVGLVAKGLLLKGDLDLELVLLCKEKPTTALLDKVADNLAIQLAAVTEDKYEILQSVDDAAIVIKNTKEPPLSLTIHLTSPVVREEMEKVLAGETLSVNDPPDVLDRQKCLAALASLRHAKWFQARANGLKSCVIVIRVLRDLCTRVPTWGPLRGWPLELLCEKSIGTANRPMGAGEALRRVLECLASGIVMPDGSGIYDPCEKEATDAIGHLDRQQREDITQSAQHALRLAAFGQLHKVLGMDPLPSKMPKKPKNENPVDYTVQIPPSTTYAITPMKRPMEEDGEEKSPSKKKKKIQKKEEKAEPPQAMNALMRLNQLKPGLQYKLVSQTGPVHAPIFTMSVEVDGNSFEASGPSKKTAKLHVAVKVLQDMGLPTGAEGRDSSKGEDSAEETEAKPAVVAPAPVVEAVSTPSAAFPSDATAEQGPILTKHGKNPVMELNEKRRGLKYELISETGGSHDKRFVMEVEVDGQKFQGAGSNKKVAKAYAALAALEKLFPDTPLALDANKKKRAPVPVRGGPKFAAKPHNPGFGMGGPMHNEVPPPPNLRGRGRGGSIRGRGRGRGFGGANHGGYMNAGAGYGSYGYGGNSATAGYSQFYSNGGHSGNASGGGGGGGGGSSGYGSYYQGDNYNSPVPPKHAGKKQPHGGQQKPSYGSGYQSHQGQQQSYNQSPYSNYGPPQGKQKGYNHGQGSYSYSNSYNSPGGGGGSDYNYESKFNYSGSGGRSGGNSYGSGGASYNPGSHGGYGGGSGGGSSYQGKQGGYSQSNYNSPGSGQNYSGPPSSYQSSQGGYGRNADHSMNYQYR

This assay concerns the target Human telomerase reverse transcriptase (human (endogenous in HCT116)) (UniProt O14746). Nature of the assay: affinity purification with mass spectrometry; hTERT immunoprecipitation (IP) followed by LC-MS, performed three times; cells not given.
Consider XRCC5 (from UniProt P13010 1-732), for which the binding entry was “binds”.

With YBX1 (from UniProt P67809 1-324), the binding result was “binds”.

For B1, the binding entry is “binds”.
